# Data taken from the supplement of paper PMC12823440, “Inhibitors supercharge kinase turnover through native proteolytic circuits” (Nature, 2025).
# Amino acid sequences for entries named in this document (tags omitted). A change or cut given only in a name is not applied to a line headed by its entry.
# UniProt P07949, whole entry, looked up: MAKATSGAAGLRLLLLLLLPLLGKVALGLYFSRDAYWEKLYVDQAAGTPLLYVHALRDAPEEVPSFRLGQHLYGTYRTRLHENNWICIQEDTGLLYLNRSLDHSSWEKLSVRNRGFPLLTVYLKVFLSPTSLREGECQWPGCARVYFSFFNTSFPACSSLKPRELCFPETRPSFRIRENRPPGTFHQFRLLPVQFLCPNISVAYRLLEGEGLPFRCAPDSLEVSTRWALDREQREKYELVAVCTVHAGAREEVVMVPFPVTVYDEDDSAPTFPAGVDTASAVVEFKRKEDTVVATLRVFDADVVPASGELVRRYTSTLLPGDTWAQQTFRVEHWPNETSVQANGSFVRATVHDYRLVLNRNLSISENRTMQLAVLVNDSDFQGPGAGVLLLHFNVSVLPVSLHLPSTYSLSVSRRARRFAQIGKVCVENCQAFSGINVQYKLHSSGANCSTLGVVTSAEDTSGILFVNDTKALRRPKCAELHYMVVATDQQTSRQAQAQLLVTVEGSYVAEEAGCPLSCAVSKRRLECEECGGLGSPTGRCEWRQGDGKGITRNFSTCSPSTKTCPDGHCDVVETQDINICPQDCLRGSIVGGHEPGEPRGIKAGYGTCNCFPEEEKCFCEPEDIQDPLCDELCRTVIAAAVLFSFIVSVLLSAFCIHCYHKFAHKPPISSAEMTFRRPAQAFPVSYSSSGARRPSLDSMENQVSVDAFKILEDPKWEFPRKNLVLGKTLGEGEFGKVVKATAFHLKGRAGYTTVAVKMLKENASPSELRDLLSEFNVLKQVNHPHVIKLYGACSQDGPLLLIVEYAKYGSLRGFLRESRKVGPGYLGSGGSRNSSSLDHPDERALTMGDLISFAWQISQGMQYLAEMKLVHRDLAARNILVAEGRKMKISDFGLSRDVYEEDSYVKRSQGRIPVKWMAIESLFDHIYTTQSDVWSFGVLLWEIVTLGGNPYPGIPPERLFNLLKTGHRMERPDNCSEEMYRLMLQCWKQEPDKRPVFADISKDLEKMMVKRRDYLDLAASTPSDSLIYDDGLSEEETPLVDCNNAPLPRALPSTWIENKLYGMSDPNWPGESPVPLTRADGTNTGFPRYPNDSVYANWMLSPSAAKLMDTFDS
# UniProt P07949, whole entry M918T, looked up: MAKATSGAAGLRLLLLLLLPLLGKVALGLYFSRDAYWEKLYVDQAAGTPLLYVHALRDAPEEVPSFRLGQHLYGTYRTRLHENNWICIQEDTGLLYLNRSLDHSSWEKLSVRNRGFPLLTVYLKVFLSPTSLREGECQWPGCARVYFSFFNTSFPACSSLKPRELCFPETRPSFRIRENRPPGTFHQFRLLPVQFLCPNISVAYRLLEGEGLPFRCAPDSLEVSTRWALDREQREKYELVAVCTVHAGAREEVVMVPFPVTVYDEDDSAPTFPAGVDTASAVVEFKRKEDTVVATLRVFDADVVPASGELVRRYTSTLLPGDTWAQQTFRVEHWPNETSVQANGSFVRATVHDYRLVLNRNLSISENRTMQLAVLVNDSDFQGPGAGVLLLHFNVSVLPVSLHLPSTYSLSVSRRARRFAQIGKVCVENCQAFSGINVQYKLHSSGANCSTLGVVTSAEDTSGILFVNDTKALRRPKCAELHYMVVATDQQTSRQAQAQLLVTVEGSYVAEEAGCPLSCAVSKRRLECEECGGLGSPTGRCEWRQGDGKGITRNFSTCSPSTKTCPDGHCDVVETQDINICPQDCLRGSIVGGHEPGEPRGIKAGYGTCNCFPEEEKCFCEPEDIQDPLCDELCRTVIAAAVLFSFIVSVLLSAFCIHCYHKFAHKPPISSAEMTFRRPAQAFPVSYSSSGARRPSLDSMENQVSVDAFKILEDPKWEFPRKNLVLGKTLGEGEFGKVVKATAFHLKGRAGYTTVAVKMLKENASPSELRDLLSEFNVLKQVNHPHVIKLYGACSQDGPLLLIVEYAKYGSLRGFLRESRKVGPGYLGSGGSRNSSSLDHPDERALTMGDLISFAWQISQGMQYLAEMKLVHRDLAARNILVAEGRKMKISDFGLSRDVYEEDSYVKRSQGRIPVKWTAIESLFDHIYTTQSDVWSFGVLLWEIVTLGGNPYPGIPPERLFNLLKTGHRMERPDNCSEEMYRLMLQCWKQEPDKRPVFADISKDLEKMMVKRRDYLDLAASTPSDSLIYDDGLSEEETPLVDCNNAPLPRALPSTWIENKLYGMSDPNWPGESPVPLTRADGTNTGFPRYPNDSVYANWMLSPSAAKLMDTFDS
# UniProt Q9BRS2: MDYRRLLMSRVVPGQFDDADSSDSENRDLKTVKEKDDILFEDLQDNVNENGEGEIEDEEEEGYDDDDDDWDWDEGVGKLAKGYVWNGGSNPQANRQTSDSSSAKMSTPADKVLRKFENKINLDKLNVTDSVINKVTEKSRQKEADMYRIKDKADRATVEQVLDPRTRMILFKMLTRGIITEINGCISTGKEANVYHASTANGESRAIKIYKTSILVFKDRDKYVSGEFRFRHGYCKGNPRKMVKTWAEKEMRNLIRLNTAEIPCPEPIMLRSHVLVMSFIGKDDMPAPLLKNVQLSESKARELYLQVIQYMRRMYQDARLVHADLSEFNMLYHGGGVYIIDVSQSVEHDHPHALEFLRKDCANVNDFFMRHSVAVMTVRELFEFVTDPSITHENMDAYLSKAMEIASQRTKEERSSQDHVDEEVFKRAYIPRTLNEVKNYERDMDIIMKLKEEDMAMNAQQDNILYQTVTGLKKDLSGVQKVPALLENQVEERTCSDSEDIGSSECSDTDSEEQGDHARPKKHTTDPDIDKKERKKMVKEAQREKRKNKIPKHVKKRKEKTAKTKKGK
# UniProt Q01974, whole entry: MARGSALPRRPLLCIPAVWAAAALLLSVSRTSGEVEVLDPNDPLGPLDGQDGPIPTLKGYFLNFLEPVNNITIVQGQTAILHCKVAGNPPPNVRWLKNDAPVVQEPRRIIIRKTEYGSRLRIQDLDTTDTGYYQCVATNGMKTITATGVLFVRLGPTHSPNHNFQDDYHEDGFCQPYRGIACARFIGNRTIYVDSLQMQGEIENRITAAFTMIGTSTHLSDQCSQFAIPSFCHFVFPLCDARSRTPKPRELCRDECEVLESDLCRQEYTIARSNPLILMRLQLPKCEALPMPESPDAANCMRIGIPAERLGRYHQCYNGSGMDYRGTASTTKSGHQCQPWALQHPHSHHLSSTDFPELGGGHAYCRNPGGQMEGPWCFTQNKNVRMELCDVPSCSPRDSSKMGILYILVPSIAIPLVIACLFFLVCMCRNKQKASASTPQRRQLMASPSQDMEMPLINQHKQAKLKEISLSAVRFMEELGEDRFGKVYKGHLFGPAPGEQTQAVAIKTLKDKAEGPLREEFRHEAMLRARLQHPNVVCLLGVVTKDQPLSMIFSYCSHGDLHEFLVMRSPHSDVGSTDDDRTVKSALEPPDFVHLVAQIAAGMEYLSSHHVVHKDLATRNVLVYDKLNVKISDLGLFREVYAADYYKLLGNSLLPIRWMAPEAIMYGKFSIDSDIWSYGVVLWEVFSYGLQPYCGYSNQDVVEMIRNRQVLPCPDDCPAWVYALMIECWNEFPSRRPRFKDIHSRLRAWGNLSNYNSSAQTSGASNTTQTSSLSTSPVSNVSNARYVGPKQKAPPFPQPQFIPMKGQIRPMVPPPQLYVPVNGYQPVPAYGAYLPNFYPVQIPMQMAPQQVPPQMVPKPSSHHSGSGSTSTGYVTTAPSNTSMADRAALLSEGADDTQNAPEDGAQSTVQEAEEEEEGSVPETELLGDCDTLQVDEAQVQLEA
# UniProt Q9Y6E0: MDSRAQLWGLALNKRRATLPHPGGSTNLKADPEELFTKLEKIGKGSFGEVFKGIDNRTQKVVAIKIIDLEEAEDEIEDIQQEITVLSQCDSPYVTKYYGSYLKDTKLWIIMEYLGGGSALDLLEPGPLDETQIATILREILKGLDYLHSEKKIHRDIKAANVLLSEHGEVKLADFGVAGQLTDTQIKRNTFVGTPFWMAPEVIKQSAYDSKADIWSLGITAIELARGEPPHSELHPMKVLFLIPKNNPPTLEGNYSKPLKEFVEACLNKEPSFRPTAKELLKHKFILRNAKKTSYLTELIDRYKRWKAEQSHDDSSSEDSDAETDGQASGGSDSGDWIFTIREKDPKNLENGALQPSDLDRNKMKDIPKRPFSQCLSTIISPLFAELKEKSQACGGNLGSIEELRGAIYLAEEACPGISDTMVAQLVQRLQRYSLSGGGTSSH
# UniProt Q15208: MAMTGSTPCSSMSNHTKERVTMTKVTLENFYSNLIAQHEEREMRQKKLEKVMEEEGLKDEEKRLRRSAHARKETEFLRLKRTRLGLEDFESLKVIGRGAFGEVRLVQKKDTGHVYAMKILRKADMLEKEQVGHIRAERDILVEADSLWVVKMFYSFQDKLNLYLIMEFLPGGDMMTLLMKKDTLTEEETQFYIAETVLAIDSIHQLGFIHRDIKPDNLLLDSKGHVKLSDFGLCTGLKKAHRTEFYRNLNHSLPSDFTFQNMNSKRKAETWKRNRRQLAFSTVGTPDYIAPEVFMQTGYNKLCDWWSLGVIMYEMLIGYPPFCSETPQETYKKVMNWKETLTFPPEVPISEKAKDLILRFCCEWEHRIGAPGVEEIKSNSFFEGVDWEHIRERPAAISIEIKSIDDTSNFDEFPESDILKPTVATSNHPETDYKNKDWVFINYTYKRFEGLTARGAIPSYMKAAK
# UniProt Q6PHR2: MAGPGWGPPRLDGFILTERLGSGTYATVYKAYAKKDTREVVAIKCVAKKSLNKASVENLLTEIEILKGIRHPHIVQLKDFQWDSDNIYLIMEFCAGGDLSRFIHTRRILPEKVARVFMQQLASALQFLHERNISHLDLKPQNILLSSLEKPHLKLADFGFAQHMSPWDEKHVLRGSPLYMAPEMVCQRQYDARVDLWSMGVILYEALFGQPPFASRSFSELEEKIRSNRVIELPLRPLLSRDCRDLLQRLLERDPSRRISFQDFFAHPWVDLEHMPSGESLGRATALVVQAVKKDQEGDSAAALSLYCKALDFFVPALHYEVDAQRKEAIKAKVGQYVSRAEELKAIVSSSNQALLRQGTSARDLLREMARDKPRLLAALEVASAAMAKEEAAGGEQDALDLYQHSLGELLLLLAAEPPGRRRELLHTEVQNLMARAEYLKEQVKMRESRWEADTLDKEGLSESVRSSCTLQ
# UniProt P07947, whole entry, looked up: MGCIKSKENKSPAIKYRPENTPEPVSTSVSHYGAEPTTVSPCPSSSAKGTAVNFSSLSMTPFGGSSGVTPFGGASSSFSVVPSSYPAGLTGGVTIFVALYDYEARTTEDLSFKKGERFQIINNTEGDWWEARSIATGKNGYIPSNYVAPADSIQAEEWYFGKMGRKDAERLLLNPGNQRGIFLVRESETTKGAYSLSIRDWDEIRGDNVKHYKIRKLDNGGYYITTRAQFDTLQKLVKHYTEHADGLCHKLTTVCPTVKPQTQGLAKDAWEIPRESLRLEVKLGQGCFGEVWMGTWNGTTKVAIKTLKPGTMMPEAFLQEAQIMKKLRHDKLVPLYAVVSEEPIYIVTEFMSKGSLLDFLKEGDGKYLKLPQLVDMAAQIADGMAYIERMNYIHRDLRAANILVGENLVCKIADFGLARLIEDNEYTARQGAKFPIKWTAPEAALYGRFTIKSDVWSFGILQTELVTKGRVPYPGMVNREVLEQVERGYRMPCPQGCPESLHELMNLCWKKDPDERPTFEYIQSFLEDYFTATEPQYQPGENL
# UniProt P43403: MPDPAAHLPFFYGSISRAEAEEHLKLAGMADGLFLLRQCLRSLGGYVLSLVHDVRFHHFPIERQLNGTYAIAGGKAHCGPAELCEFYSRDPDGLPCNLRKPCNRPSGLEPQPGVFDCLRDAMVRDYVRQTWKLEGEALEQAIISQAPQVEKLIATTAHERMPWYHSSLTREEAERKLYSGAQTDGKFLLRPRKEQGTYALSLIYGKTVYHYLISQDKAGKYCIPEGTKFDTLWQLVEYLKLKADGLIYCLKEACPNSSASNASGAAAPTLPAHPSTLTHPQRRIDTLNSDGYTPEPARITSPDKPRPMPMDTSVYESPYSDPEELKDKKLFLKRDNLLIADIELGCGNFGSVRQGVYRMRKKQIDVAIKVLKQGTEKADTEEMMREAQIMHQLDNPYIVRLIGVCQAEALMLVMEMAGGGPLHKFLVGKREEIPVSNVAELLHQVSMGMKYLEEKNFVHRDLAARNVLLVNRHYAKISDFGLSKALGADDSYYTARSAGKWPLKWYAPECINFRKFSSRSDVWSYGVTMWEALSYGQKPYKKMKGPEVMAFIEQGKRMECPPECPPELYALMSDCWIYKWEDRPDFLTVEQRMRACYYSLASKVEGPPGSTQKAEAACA
# Structures can show the parent of a compound that is named as a salt. This is one part of the list. Hit calls seldom repeat between salt and free forms of one compound.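 In K562 cells expressing nanoluciferase-fused kinases, luminescence was recorded at 4 h intervals between 2 and 18 h, normalized as percent of control with DMSO at 100% and a positive control at 0%. A significant (2 sigma) signal drop marks a time point as decreased. The authors' rule for a hit is not shown and takes in more than the number of time points.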
# What was measured:
# Details in all cases: K562; 2-18 h
# RET = RET (UniProt P07949); experiment: kinase-Nluc reporter destabilization hit call (1 = scored as downregulated) (binary); higher = compound decreases kinase abundance
# [1] = biological target: RET_M918T (clone: RET_mut) (UniProt P07949); experiment: as above
# RIOK1 = RIOK1 (UniProt Q9BRS2); experiment: as above
# RIPK1 = RIPK1 (UniProt Q13546); experiment: as above
# RIPK2 = RIPK2 (UniProt O43353); experiment: as above
# ROR2 = ROR2 (UniProt Q01974); experiment: as above
# RPS6KA1 = RPS6KA1 (UniProt Q15418); experiment: as above
# SPHK1 = SPHK1 (UniProt Q9NYA1); experiment: as above
# SRC = SRC (UniProt P12931); experiment: as above
# STK24 = STK24 (UniProt Q9Y6E0); experiment: as above
# STK38 = STK38 (UniProt Q15208); experiment: as above
# SYK = SYK (UniProt P43405); experiment: as above
# TEC = TEC (UniProt P42680); experiment: as above
# TYK2 = TYK2 (UniProt P29597); experiment: as above
# ULK3 = ULK3 (UniProt Q6PHR2); experiment: as above
# YES1 = YES1 (UniProt P07947); experiment: as above
# ZAK = ZAK (UniProt Q9NYL2); experiment: as above
# ZAP70 = ZAP70 (UniProt P43403); experiment: as above
# ABL1 = ABL1 (UniProt P00519); experiment: number of time points (of 5) at which kinase-Nluc abundance scored as decreased, DMSO-normalised (count); higher = more persistent destabilization
# AKT1 = AKT1 (UniProt P31749); experiment: as above
SMILES,kinase-Nluc reporter destabilization hit call (RET),kinase-Nluc reporter destabilization hit call [1],kinase-Nluc reporter destabilization hit call (RIOK1),kinase-Nluc reporter destabilization hit call (RIPK1),kinase-Nluc reporter destabilization hit call (RIPK2),kinase-Nluc reporter destabilization hit call (ROR2),kinase-Nluc reporter destabilization hit call (RPS6KA1),kinase-Nluc reporter destabilization hit call (SPHK1),kinase-Nluc reporter destabilization hit call (SRC),kinase-Nluc reporter destabilization hit call (STK24),kinase-Nluc reporter destabilization hit call (STK38),kinase-Nluc reporter destabilization hit call (SYK),kinase-Nluc reporter destabilization hit call (TEC),kinase-Nluc reporter destabilization hit call (TYK2),kinase-Nluc reporter destabilization hit call (ULK3),kinase-Nluc reporter destabilization hit call (YES1),kinase-Nluc reporter destabilization hit call (ZAK),kinase-Nluc reporter destabilization hit call (ZAP70),number of time points (ABL1),number of time points (AKT1)
N#CC(C#N)=Cc1ccc(O)c(O)c1 [Tyrphostin 23] (10 µM),inactive: 0,inactive: 0,inactive: 0,inactive: 0,inactive: 0,inactive: 0,inactive: 0,inactive: 0,inactive: 0,inactive: 0,inactive: 0,inactive: 0,inactive: 0,inactive: 0,inactive: 0,inactive: 0,inactive: 0,inactive: 0,0,0
C[C@@H]1CC[C@H]2[C@@H](C)C(=O)O[C@@H]3O[C@@]4(C)CC[C@@H]1[C@]32OO4 [Artemisinin] (10 µM),inactive: 0,inactive: 0,inactive: 0,inactive: 0,inactive: 0,inactive: 0,inactive: 0,inactive: 0,inactive: 0,inactive: 0,inactive: 0,inactive: 0,inactive: 0,inactive: 0,inactive: 0,inactive: 0,inactive: 0,inactive: 0,0,0
NCCc1cn(S(=O)(=O)c2c(Cl)nc3sccn23)c2ccccc12 (10 µM),inactive: 0,inactive: 0,inactive: 0,inactive: 0,inactive: 0,inactive: 0,inactive: 0,inactive: 0,inactive: 0,inactive: 0,inactive: 0,inactive: 0,inactive: 0,inactive: 0,inactive: 0,inactive: 0,inactive: 0,inactive: 0,0,0
Cc1n[nH]cc1-c1cc2nc([C@@H]3CC4CCN3CC4)[nH]c(=O)c2s1 [Simurosertib] (2.5 µM),inactive: 0,inactive: 0,inactive: 0,inactive: 0,inactive: 0,inactive: 0,inactive: 0,inactive: 0,inactive: 0,inactive: 0,inactive: 0,inactive: 0,inactive: 0,inactive: 0,inactive: 0,inactive: 0,inactive: 0,inactive: 0,0,0
N#CC(C#N)=Cc1ccc([N+](=O)[O-])c(O)c1 (10 µM),inactive: 0,inactive: 0,inactive: 0,inactive: 0,inactive: 0,inactive: 0,inactive: 0,inactive: 0,inactive: 0,inactive: 0,inactive: 0,inactive: 0,inactive: 0,inactive: 0,inactive: 0,inactive: 0,inactive: 0,inactive: 0,0,0
C=CC(=O)Nc1ccc2[nH]c(=O)n(C3CCN(Cc4ccc(-c5nc6cc[nH]c(=O)c6cc5-c5ccccc5)cc4)CC3)c2c1 [Borussertib] (10 µM),inactive: 0,inactive: 0,inactive: 0,inactive: 0,inactive: 0,inactive: 0,inactive: 0,inactive: 0,inactive: 0,inactive: 0,inactive: 0,inactive: 0,inactive: 0,inactive: 0,inactive: 0,inactive: 0,inactive: 0,inactive: 0,0,0
CCCS(=O)(=O)Nc1ccc(F)c(-n2cc(-c3cncnc3)c3nc(N(C)C4CCN(CC)CC4)ccc32)c1F (2 µM),inactive: 0,inactive: 0,inactive: 0,inactive: 0,inactive: 0,inactive: 0,inactive: 0,inactive: 0,inactive: 0,inactive: 0,inactive: 0,inactive: 0,inactive: 0,inactive: 0,inactive: 0,inactive: 0,inactive: 0,inactive: 0,0,0
CC(C)(C)c1cc(C=C(C#N)C#N)cc(Br)c1O (2.5 µM),inactive: 0,inactive: 0,inactive: 0,inactive: 0,inactive: 0,inactive: 0,inactive: 0,inactive: 0,inactive: 0,inactive: 0,inactive: 0,inactive: 0,inactive: 0,inactive: 0,inactive: 0,inactive: 0,inactive: 0,inactive: 0,0,0
O=[N+]([O-])/C=C/c1ccc2c(c1)OCO2 (2.5 µM),inactive: 0,inactive: 0,inactive: 0,inactive: 0,inactive: 0,inactive: 0,inactive: 0,inactive: 0,inactive: 0,inactive: 0,inactive: 0,inactive: 0,inactive: 0,inactive: 0,inactive: 0,inactive: 0,inactive: 0,inactive: 0,0,0
CCCCNc1nc(N)c2[nH]c(=O)n(Cc3ccc(C)nc3)c2n1 (10 µM),inactive: 0,inactive: 0,inactive: 0,inactive: 0,inactive: 0,inactive: 0,inactive: 0,inactive: 0,inactive: 0,inactive: 0,inactive: 0,inactive: 0,inactive: 0,inactive: 0,inactive: 0,inactive: 0,inactive: 0,inactive: 0,0,0
O=C(O)c1nn(Cc2ccc(Cl)cc2Cl)c2ccccc12 [Lonidamine] (10 µM),inactive: 0,inactive: 0,inactive: 0,inactive: 0,inactive: 0,inactive: 0,inactive: 0,inactive: 0,inactive: 0,inactive: 0,inactive: 0,inactive: 0,inactive: 0,inactive: 0,inactive: 0,inactive: 0,inactive: 0,inactive: 0,0,0
C[C@H](Nc1ncnc2[nH]cnc12)c1nc2ccc(F)cc2c(=O)n1-c1ccccc1 [Acalisib] (10 µM),inactive: 0,inactive: 0,inactive: 0,inactive: 0,inactive: 0,inactive: 0,inactive: 0,inactive: 0,inactive: 0,inactive: 0,inactive: 0,inactive: 0,inactive: 0,inactive: 0,inactive: 0,inactive: 0,inactive: 0,inactive: 0,0,0
N#CC(C#N)=NNc1cccc(Cl)c1 (2.5 µM),inactive: 0,inactive: 0,inactive: 0,inactive: 0,inactive: 0,inactive: 0,inactive: 0,inactive: 0,inactive: 0,inactive: 0,inactive: 0,inactive: 0,inactive: 0,inactive: 0,inactive: 0,inactive: 0,inactive: 0,inactive: 0,3,0
CC(=O)c1c(O)c(C)c(O)c(Cc2c(O)c3c(c(C(=O)/C=C/c4ccccc4)c2O)OC(C)(C)C=C3)c1O [Rottlerin] (2 µM),inactive: 0,inactive: 0,inactive: 0,inactive: 0,inactive: 0,inactive: 0,inactive: 0,inactive: 0,inactive: 0,inactive: 0,inactive: 0,inactive: 0,inactive: 0,inactive: 0,inactive: 0,inactive: 0,inactive: 0,inactive: 0,1,0
Nc1ncnc2c1ncn2[C@@H]1O[C@@H]2COP(O)(=S)O[C@H]2[C@H]1O (stereo partly specified) [Sp-cAMPS (sodium salt)] (10 µM),inactive: 0,inactive: 0,inactive: 0,inactive: 0,inactive: 0,inactive: 0,inactive: 0,inactive: 0,inactive: 0,inactive: 0,inactive: 0,inactive: 0,inactive: 0,inactive: 0,inactive: 0,inactive: 0,inactive: 0,inactive: 0,0,0
O=c1[nH]c2ccccc2n1C1CCN(Cc2ccc(-c3[nH]c4cc5ncnc5cc4nc3-c3ccccc3)cc2)CC1 [AKT inhibitor VIII] (2.5 µM),inactive: 0,inactive: 0,inactive: 0,inactive: 0,inactive: 0,inactive: 0,inactive: 0,inactive: 0,inactive: 0,inactive: 0,inactive: 0,inactive: 0,inactive: 0,inactive: 0,inactive: 0,inactive: 0,inactive: 0,inactive: 0,0,0
CC1=C[C@]23C(=O)[C@@H](C=C(CO)[C@@H](O)[C@]2(O)[C@H]1O)[C@H]1[C@@H](C[C@H]3C)C1(C)C [Ingenol] (10 µM),inactive: 0,inactive: 0,inactive: 0,inactive: 0,inactive: 0,inactive: 0,inactive: 0,inactive: 0,inactive: 0,inactive: 0,inactive: 0,inactive: 0,inactive: 0,inactive: 0,inactive: 0,inactive: 0,inactive: 0,inactive: 0,0,0
CC(=O)OC(C)(C)/C=C/C(=O)[C@](C)(O)[C@H]1[C@H](O)C[C@@]2(C)[C@@H]3CC=C4[C@@H](C=C(O)C(=O)C4(C)C)[C@]3(C)C(=O)C[C@]12C [Cucurbitacin E] (2.5 µM),inactive: 0,inactive: 0,inactive: 0,inactive: 0,inactive: 0,inactive: 0,inactive: 0,inactive: 0,inactive: 0,inactive: 0,inactive: 0,inactive: 0,inactive: 0,inactive: 0,inactive: 0,inactive: 0,inactive: 0,inactive: 0,5,0
COc1ccc2c(c1)/C(=C/c1cnc[nH]1)C(=O)N2 (2.5 µM),–,–,inactive: 0,inactive: 0,inactive: 0,inactive: 0,inactive: 0,inactive: 0,inactive: 0,inactive: 0,inactive: 0,inactive: 0,inactive: 0,inactive: 0,inactive: 0,inactive: 0,inactive: 0,inactive: 0,0,0
C/C(O)=C(\C#N)C(=O)Nc1cc(Br)ccc1Br (10 µM),inactive: 0,inactive: 0,inactive: 0,inactive: 0,inactive: 0,inactive: 0,inactive: 0,inactive: 0,inactive: 0,inactive: 0,inactive: 0,inactive: 0,inactive: 0,inactive: 0,inactive: 0,inactive: 0,inactive: 0,inactive: 0,0,0
COc1cc2c(cc1F)C(c1ccccc1Cl)=Nc1c(n[nH]c1C)N2 (0.5 µM),–,–,inactive: 0,inactive: 0,inactive: 0,inactive: 0,inactive: 0,inactive: 0,inactive: 0,inactive: 0,inactive: 0,inactive: 0,inactive: 0,inactive: 0,inactive: 0,inactive: 0,inactive: 0,inactive: 0,0,0
CC(=O)Oc1ccc(/C=C/c2cc(OC(C)=O)cc(OC(C)=O)c2)cc1 [Triacetylresveratrol] (10 µM),inactive: 0,inactive: 0,inactive: 0,inactive: 0,inactive: 0,inactive: 0,inactive: 0,inactive: 0,inactive: 0,inactive: 0,inactive: 0,inactive: 0,inactive: 0,inactive: 0,inactive: 0,inactive: 0,inactive: 0,inactive: 0,0,0
